Five compounds from US9708244B2, “Coloring material and method for producing the same” (DAI NIPPON PRINTING CO., LTD., priority 2012, dated 2017) can be followed below.

Data set [1] can be described thus: Evaluation of dyeing property by using water (dyed fabric washed with running water). More on the design: key: ∘: There was no loss of color from the fabric; Δ: There was a loss of color from the fabric; x: No color remained on the fabric. As to conditions: dyed fabric washed with running water at 20° C. for 10 minutes, loss of color visually observed.
A short description of data set [2]: Evaluation of dyeing property by using detergent (dyed fabric immersed in detergent, then washed). More on the design: key: ∘: There was no loss of color from the fabric; Δ: There was a loss of color from the fabric; x: No color remained on the fabric. The conditions noted are these: immersed in surfactant-containing detergent 5 minutes, then running water at 20° C. for 5 minutes, visually observed.

SMILES strings stand for the structures.

Consider `CCN(CC)c1ccc(C(=C2C=CC(=[N+](CC)CC)C=C2)c2ccc(NCc3ccc(CNc4ccc(C(=C5C=CC(=[N+](CC)CC)C=C5)c5ccc(N(CC)CC)cc5)c5ccccc45)cc3)c3ccccc23)cc1.[Cl-].[Cl-]` [Color material A], for which the “Dyeing property: washed with running water” value (“Dyeing property: washed” below) in data set [1] was “∘”. The “Dyeing property: immersed in detergent and then washed with running water” value (“Dyeing property: immersed” for short) in data set [2] is given as “∘”.

For the compound `CCN(CC)c1ccc(C(=C2C=CC(=[N+](CC)CC)C=C2)c2ccc(NCc3ccc(CNc4ccc(C(=C5C=CC(=[N+](CC)CC)C=C5)c5ccc(N(CC)CC)cc5)c5ccccc45)cc3)c3ccccc23)cc1` [Color material B], the “Dyeing property: washed” value in data set [1] is recorded as “∘”. Further, the “Dyeing property: immersed” value in data set [2] is listed as “∘”.

Turning to `CCNc1ccc(C(=C2C=CC(=[N+](CC)CC)C=C2)c2ccc(N(CC)CC)cc2)c2ccccc12.[Cl-]` [Color material D, Basic Blue 7 (CI-42595)], in data set [1], the “Dyeing property: washed” value is given as “x”. In data set [2], the “Dyeing property: immersed” value was “x”.

Take `CCNc1ccc(C(=C2C=CC(=[N+](CC)CC)C=C2)c2ccc(N(CC)CC)cc2)c2ccccc12.Cc1ccc(S(=O)(=O)[O-])cc1` [Color material E]: the “Dyeing property: washed” value in data set [1] is listed as “Δ”. Also, the “Dyeing property: immersed” value in data set [2] is “x”.

For `CCNc1ccc(C(=C2C=CC(=[N+](CC)CC)C=C2)c2ccc(N(CC)CC)cc2)c2ccccc12` [Color material F], in data set [1], the “Dyeing property: washed” value is “Δ”. In addition, the “Dyeing property: immersed” value in data set [2] is listed as “x”.
